# About 2,100 (0.66%) of roughly 320,000 compounds were called active. The shares of active, inactive and inconclusive entries below differ from those in the screen. Calls come from the whole dose curve; as a rule, active = well fitted inhibition curve with a large enough effect in the signal ratio, with a control signal flat (not every such curve was filed as active); inconclusive = small, poorly fitted or top-dose-only effect, or effect the other way, or a change in a side signal; inactive = flat fitted curve, though single readings scatter; the % refers to the signal ratio. Potencies of inconclusive entries are doubtful fits and often do not repeat.
# Assay: qHTS Assay for Lipid Storage Modulators in Drosophila S3 Cells
# Details: BODIPY lipid droplet fluorescence, 18-24 h, cells fed with added oleic acid; lipid storage change, negative = inhibition: at 46.1 µM (top of the series) unless noted
# How it was run: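 Drosophila S3 cells loaded with oleic acid (400 uM, as added) and compounds at several concentrations; lipid droplets imaged by 488-nm laser-scanning cytometry, 500–530 nm intensity and object ratio to cell channel. Percent activity normalized to 20 uM Triacsin C.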
# % is set by controls: 0 for no effect and ±100 for the full control effect; potency is the fitted concentration of half-maximal effect.
SMILES,"lipid storage change, negative = inhibition",Potency
Cc1cc(C)n(-c2nc(NCC(C)O)c3c4c(sc3n2)COC(C)(C)C4)n1 (centres undefined),inconclusive: 23.4%,–
CN(Cc1ccccc1)C(=O)CN1C(=O)NC2(CCCC2)C1=O,inconclusive: 82.3%,–
CCn1ncc(N2CCOCC2)c(Cl)c1=O,inconclusive: -73.3%,–
O=C1NNC(c2ccccc2)=N/C1=C\c1ccco1,inconclusive: 14.1%,–
Cc1cc(OCC(=O)OCC(=O)NC2CCCCC2C)ccc1Cl (centres undefined),–,"inconclusive: 6.51 µM [cytotoxic, single point]"
O=C(CSc1ncnc2c1nnn2Cc1ccc(F)cc1)NC1CCCC1,inconclusive: -18.4%,–
Nc1nc(COC(=O)C2CC(=O)N(CCc3ccccc3)C2)nc(Nc2ccccc2)n1 (centres undefined),–,"inconclusive: 4.61 µM [activator, full curve, poor fit]"
Cc1ccc(C(=O)C[n+]2cc(Br)cc(Br)c2)cc1[N+](=O)[O-],inactive,–
CC1Cc2ccccc2N1C(=O)COC(=O)c1n[nH]c(=O)c2ccccc12 (centres undefined),–,"inconclusive: 23.1 µM [activator, partial curve]"
COc1cc(NC(=O)c2cncc(-c3ccc(C#N)cc3)c2)cc(C(=O)Nc2cccc(C(F)(F)F)c2)c1,inconclusive: -31.7%,–
NCC(=O)N1CCC(C(=O)N[C@@H](Cc2c[nH]c3ccccc23)C(=O)O)CC1,inconclusive: -12.1%,–
CC1(C(=O)O)CCC(C(=O)Nc2ccccc2O)C1(C)C (centres undefined),–,"inconclusive: 0.103 µM [falling, full curve]"
Cc1cc(C)c2c(C)c(C(=O)NCc3ccc(S(N)(=O)=O)cc3)oc2c1,–,"inconclusive: 29.1 µM [falling, single point]"
CCCn1c(N)c(C(=O)CN(C)CC(=O)Nc2c(C)cc(C)cc2C)c(=O)[nH]c1=O,–,"inconclusive: 9.2 µM [activator, partial curve, poor fit]"
O=C(NC1CCCCCC1)C(=S)N1CCOCC1,inconclusive: -24%,–
CCOc1cc(N2CCOCC2)c(OCC)cc1NC(=O)c1ccc(OC)cc1,inconclusive: -9.7%,–
CCCOc1ccc(-c2nc(N3CCN(C)CC3)c3ccccc3n2)cc1,inconclusive: -17.3%,–
Cc1ccccc1N=C1N=C(N)c2ccccc21,inactive,–
O=C1CCc2cc(S(=O)(=O)NC3CCCCC3)cc3c2N1CC3,inactive,–
Cc1ccc(S(=O)(=O)N(CC(=O)N2CCCCCC2)c2ccccc2F)cc1,inconclusive: -43.3%,–
COc1ccc(NS(=O)(=O)c2ccc(N3CCCC3)c(N)c2)cc1,inconclusive: -121%,–
CCCN(CCC)C(=O)CC(c1ccccc1)c1cc(Br)ccc1O (centres undefined),–,"inconclusive: 0.0651 µM [activator, full curve, poor fit]"
CC(NCC(=O)NC(=O)NC1CCCC1)c1ccc(Cl)cc1Cl (centres undefined),inconclusive: 40.3%,–
NS(=O)(=O)c1ccc(NS(=O)(=O)c2ccc(NC(=O)c3ccc(-c4ccccc4)cc3)cc2)cc1,–,"inconclusive: 29.1 µM [falling, single point]"
CCc1nnc(NC(=O)CSc2nnc(-c3cccnc3)n2C)s1,–,"inconclusive: 0.146 µM [cytotoxic, full curve, poor fit]"
O=C(CSc1nnc(CNC(=O)c2ccco2)o1)Nc1ccc(Cl)cc1,inconclusive: -143%,–
CC(Sc1nncn1C)C(=O)Nc1nnc(-c2ccccc2)s1 (centres undefined),inconclusive: 21.7%,–

SMILES,"lipid storage change, negative = inhibition",Potency
CCNc1ccc(C(=O)OC(C(=O)NC(N)=O)C(C)C)cc1[N+](=O)[O-] (centres undefined),inconclusive: 13.9%,–
Cc1c(C(=O)N(CCC#N)c2ccccc2)sc2nc3n(c(=O)c12)CCCC3,inactive,–
CCCCn1c(N)c(N(C)C(=O)c2cc3c(s2)CCCCC3)c(=O)[nH]c1=O,–,"inconclusive: 1.3 µM [activator, partial curve]"
Cn1cccc1CNC(=S)Nc1ccccc1F,inconclusive: -5.19%,–
O=S(=O)(c1ccc(NCCc2c[nH]c3ccccc23)nc1)N1CCOCC1,inconclusive: -35.2%,–
CCCC(O)(CCC)C(=O)NN(C(=O)CCl)c1ccccc1,–,"inconclusive: 20.6 µM [falling, partial curve]"
O=C(CN1CCN(c2ccccn2)CC1)Nc1ccc(F)cc1,–,"inconclusive: 3.26 µM [rising, partial curve, poor fit]"
CC(=O)NC1(C(F)(F)F)C(=O)Nc2c1c(=O)[nH]c(=O)n2CCc1ccccc1 (centres undefined),–,"inconclusive: 6.51 µM [falling, full curve, poor fit]"
CC(=O)Nc1ccc(S(=O)(=O)NCc2nc(-c3ccccc3C)no2)cc1,–,"inconclusive: 29.1 µM [activator, single point]"
COc1ccc(/C=N/NC(=O)CCn2nc(C)cc2C)cc1,inactive,–
N#Cc1ccc(CN2CCN(CC(=O)Nc3ccccc3C(=O)NC3CC3)CC2)cc1,inconclusive: -4.92%,–
CC(Sc1nnc(Nc2ccccc2)s1)C(=O)Nc1nc(-c2ccccc2)cs1 (centres undefined),inconclusive: -53% [cytotoxic],–
COc1ccccc1CC(=O)c1ccc(OCc2ccccc2)cc1,inconclusive: -32.2%,–
CC(=O)N[C@@H](C)C(=O)N1CCN(S(=O)(=O)c2ccc(Cl)cc2)CC1,inconclusive: -15.3%,–
Nc1c2c(nc3ccc(Br)cc13)N(C1CCCCC1)CC2,inconclusive: -73.7%,–
CCN(Cc1ccccc1)C(=O)c1ccccc1C,inconclusive: -0.571%,–
N#CCc1ccc(OC(=O)Nc2ccccc2)cc1,inconclusive: -11.9%,–
COc1ccc(NC(=S)NNC(=O)CNc2ccc(Cl)cc2)cc1,inactive,–
Cc1ccc(NC(=O)CC2SC(=NC3CCCCC3)NC2=O)cc1 (centres undefined),inconclusive: 17.6%,–
CCOC(=O)c1cnc2c(Cl)cccc2c1NCCN(C)C,inconclusive: 39.2%,–
Cc1ccc(OCC(=O)OC2CCCN(C)C2)cc1 (centres undefined),inconclusive: 25.1%,–
COc1ccc(C(=O)Nc2ccnn2C2CCN(Cc3ccn[nH]3)CC2)cc1,inconclusive: -42.3%,–
Cc1ccc(S(=O)(=O)N2[C@@H](c3ccc(Cl)cc3)C(C(=O)O)=CC[C@H]2c2cccc(C)c2)cc1,inconclusive: 13.4%,–
O=C1CCC(Cc2ccccc2)N1 (centres undefined),–,"inconclusive: 2.06 µM [falling, partial curve, poor fit]"
CCc1ccccc1S(=O)(=O)Cc1ccc(C(=O)NCCc2ccccc2)o1,inconclusive: -140%,–
Cn1c(C(=O)NCCC2=CCCCC2)cc2c(=O)n3ccccc3nc21,inactive,–
COc1ccc(S(=O)(=O)N2CCCCCC2)cc1C(=O)NCCc1ccc(F)cc1,inconclusive: 27.1%,–

SMILES,"lipid storage change, negative = inhibition",Potency
Cc1ccc(S(=O)(=O)CC(=O)N2CC(C)OC(C)C2)cc1 (centres undefined),inconclusive: 32%,–
Cc1ccc2c(c1)N(Cc1ccncc1)C(=O)C(C)O2 (centres undefined),inconclusive: 8.13%,–
O=C(CNC(=O)Cc1ccccc1)NCc1cccc(C(F)(F)F)c1,inconclusive: 55.5%,–
CC(C)(C)c1ccc(Oc2ccc(NC(=O)c3cccs3)cn2)cc1,–,"inconclusive: 23.1 µM [cytotoxic, partial curve]"
CC1CCCN(C(=O)CCCC(=O)N2CCCC(C)C2)C1 (centres undefined),–,"inconclusive: 4.11 µM [falling, full curve, poor fit]"
CC(C)OC(=O)C1Cc2ccccc2CN1S(=O)(=O)c1cccs1 (centres undefined),inconclusive: 36.4%,–
O=C(COC(=O)c1ccc(Cl)nc1)NNC(=O)c1ccc(Cl)cc1,inconclusive,–
CC1(C)CC2CC(C)(CN2C(=O)CCCN2C(=O)c3ccccc3C2=O)C1 (centres undefined),inconclusive: -9.07%,–
COc1cc(OC)cc(C(=O)N/N=C/c2ccc(OC)c(COc3ccc4ccccc4c3)c2)c1,–,"inconclusive: 16.4 µM [falling, partial curve]"
Cc1cccc(N2CCN(c3ccc(N4C(=O)CCCC4=O)cc3[N+](=O)[O-])CC2)c1C,inactive,–
CCc1cc2c(=O)c(-c3cnn(-c4ccccc4)c3)coc2c(CN2CCOCC2)c1O,inconclusive: 47.9%,–
Cc1nc2ccc(NC(=O)c3oc4ccc(F)cc4c3C)cc2s1,inconclusive: 20.3%,–
C=CCN1CN(S(=O)(=O)c2ccc(OC)cc2)c2nc3ccccc3nc21,–,"inconclusive: 13 µM [falling, partial curve]"
COc1cccc(OCC(O)CN2CCOCC2)c1 (centres undefined),inconclusive: 4.68%,–
CCc1ccc(N(CC(=O)N2CCN(Cc3ccccc3)CC2)S(C)(=O)=O)cc1,inconclusive: -18.2%,–
CCc1nc2ccc(C(=O)NCCc3ccc(OC)c(OC)c3)cc2nc1CC,–,"inconclusive: 0.0046 µM [falling, full curve, poor fit]"
Cc1nonc1NC(=O)OC1CCCCC1,inconclusive: -31.1%,–
O=C(OCC(=O)N1CCCC1=O)C1COc2ccccc2O1 (centres undefined),inconclusive: 7.99%,–
CCN(CC)N=Nc1ccc(S(N)(=O)=O)cc1,inactive,–
C[C@@]12C(=O)Nc3ccc(Cl)cc3C(=O)N1[C@H]1c3ccccc3OC[C@@H]1[C@@H]2c1ccccc1,–,"inconclusive: 20.6 µM [falling, partial curve, poor fit]"
COc1ccc(/C=C2\Oc3cc(OCC(=O)N4CC(O)C[C@H]4C(=O)O)ccc3C2=O)cc1OC (some centres undefined),inconclusive: 93.5%,–
O=C(O)c1c(C(=O)O)c(-c2ccc(F)cc2)n2c1CCC2,inconclusive: -19.7%,–
Cc1ccc(N(CC(=O)Nc2cc(C)ccc2C)S(C)(=O)=O)cc1,inconclusive: 2.81%,–
CC(C(=O)O)N1C(=O)c2ccccc2C1=O (centres undefined),–,"inconclusive: 0.651 µM [activator, full curve, poor fit]"
CCn1nc(C)c(CN2CCc3c([nH]c4ccccc34)C2c2ccc(F)c(OC)c2)c1C (centres undefined),inconclusive: 15.1%,–

# Record cards, from the list above. Order of values: lipid storage change, negative = inhibition | Potency
# Cc1nonc1NC(=O)OC1CCCCC1 is entered as inconclusive: -31.1% | –
# Cc1ccc(N(CC(=O)Nc2cc(C)ccc2C)S(C)(=O)=O)cc1 is entered as inconclusive: 2.81% | –

# Structures from the list above with two or more sulfur atoms, in the order listed:
SMILES,"lipid storage change, negative = inhibition",Potency
NS(=O)(=O)c1ccc(NS(=O)(=O)c2ccc(NC(=O)c3ccc(-c4ccccc4)cc3)cc2)cc1,–,"inconclusive: 29.1 µM [falling, single point]"
CCc1nnc(NC(=O)CSc2nnc(-c3cccnc3)n2C)s1,–,"inconclusive: 0.146 µM [cytotoxic, full curve, poor fit]"
CC(Sc1nncn1C)C(=O)Nc1nnc(-c2ccccc2)s1 (centres undefined),inconclusive: 21.7%,–
CC(Sc1nnc(Nc2ccccc2)s1)C(=O)Nc1nc(-c2ccccc2)cs1 (centres undefined),inconclusive: -53% [cytotoxic],–
CC(C)OC(=O)C1Cc2ccccc2CN1S(=O)(=O)c1cccs1 (centres undefined),inconclusive: 36.4%,–

# Reference: PubChem BioAssay AID2685 (National Center for Advancing Translational Sciences (NCATS), 2010)
